# Laboratory results as given in PubChem BioAssay AID540275 (National Center for Advancing Translational Sciences (NCATS), 2011).
# Amino acid sequences for entries named in this document (tags omitted).
# UniProt Q8NER1, whole entry, looked up: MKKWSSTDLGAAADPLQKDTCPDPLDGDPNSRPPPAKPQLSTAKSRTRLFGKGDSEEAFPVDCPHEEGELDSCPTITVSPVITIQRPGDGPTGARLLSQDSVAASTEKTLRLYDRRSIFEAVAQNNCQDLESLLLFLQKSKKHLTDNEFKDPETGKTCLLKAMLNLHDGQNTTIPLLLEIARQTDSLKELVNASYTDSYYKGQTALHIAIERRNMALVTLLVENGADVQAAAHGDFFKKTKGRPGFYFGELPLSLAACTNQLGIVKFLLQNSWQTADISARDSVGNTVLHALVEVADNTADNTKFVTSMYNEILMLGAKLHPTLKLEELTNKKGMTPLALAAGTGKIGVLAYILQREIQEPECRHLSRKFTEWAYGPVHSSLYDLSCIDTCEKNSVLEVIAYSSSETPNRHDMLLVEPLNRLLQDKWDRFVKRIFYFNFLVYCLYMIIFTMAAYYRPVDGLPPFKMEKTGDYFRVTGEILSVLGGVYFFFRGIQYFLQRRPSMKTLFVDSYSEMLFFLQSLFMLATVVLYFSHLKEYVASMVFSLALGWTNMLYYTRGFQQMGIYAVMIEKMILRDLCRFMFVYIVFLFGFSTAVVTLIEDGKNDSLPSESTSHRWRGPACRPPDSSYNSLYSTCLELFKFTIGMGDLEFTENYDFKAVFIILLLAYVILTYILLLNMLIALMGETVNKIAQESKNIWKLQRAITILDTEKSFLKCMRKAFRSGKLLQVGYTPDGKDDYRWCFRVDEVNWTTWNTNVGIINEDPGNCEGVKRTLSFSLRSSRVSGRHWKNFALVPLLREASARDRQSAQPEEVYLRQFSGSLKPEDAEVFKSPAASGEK
# Out of some 320,000 compounds screened, about 620 (0.19%) were called active. Inconclusive means that the source gave no clear call. Such entries were picked first, then a sample of the others. No stated cut-off is given here; in the data, active means activation above about 80%; inconclusive means between about 30% and that limit; inactive means weaker than that.
# Biological target: Transient receptor potential cation channel subfamily V member 1 (Homo sapiens) (UniProt Q8NER1)
# Assay: HTS Assay for Compounds that Act as Agonists of the Vanilloid Receptor 1; further: 0% is about no effect
# Conditions: TRPV1-expressing cells, Fluo-8 calcium influx, agonist mode; at 8.33 µM, hits give high values
# In short: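 Fluo-8 calcium influx in TRPV1-expressing cells, kinetic read (ex 480/em 520 nm). Compound added and read 3 min for agonist activity, followed by capsaicin at EC20 final and 2 min further read for enhancement.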
row,SMILES,activation
1,Cc1c(Cl)ccc2sc(NC(=O)c3ccco3)nc12,active: 89.5%
2,COc1cc(/C=C(/C#N)C(=O)c2c(C)[nH]c3ccccc23)ccc1OCC#N,inactive: -0.127%
3,CC(C)c1ccc(CNc2c([N+](=O)[O-])c(=O)oc3ccccc23)cc1,inconclusive: 33.3%
4,S=C(Cc1ccccc1)NCCc1ccccc1,inconclusive: 50.3%
5,COc1ccc(C(=O)Nc2ccccc2C(=O)NCc2ccco2)cc1OC,inactive: 19.2%
6,CCOc1ccccc1N1CCN(C(=S)NC(=O)C23CC4CC(CC(C4)C2)C3)CC1,inactive: 0.446%
7,CC(C)c1c(C(=O)N/N=C/C=C/c2ccccc2)nnn1-c1nonc1N,inconclusive: 36.2%
8,CC1CCN(C(=O)CSc2nc3ccccc3c(=O)n2Cc2ccc3c(c2)OCO3)CC1,active: 81.9%
9,O=C(Nc1ccc2c(c1)OCCO2)Nc1ccc2c(c1)OCO2,inconclusive: 43.6%
10,Cc1onc(NC(=O)c2ccc(Cl)cc2Cl)c1Br,inconclusive: 69.5%
11,COc1ccc(CCNC(=O)/C=C/c2ccc(C)cc2)cc1OC,inconclusive: 39.4%
12,Cc1ccc2c(C)c(C(=O)NCC(C)(C)N3CCOCC3)oc2c1C,inconclusive: 50.7%
13,CCCSc1nc(N2CCOCC2)c2c(c1C#N)CC(C)(C)SC2,inconclusive: 40.8%
14,Cc1cc(C(C)(C)C)oc1C(=O)N(CC(=O)NC1CCCC1)c1cccc(C(F)(F)F)c1,inconclusive: 39.7%
15,COc1cccc(N=C2SC(C(=O)Nc3ccccc3F)CC(=O)N2C)c1 (configuration not stated),inconclusive: 39.2%
16,CCCCC(C(=O)NC(C)(C)C)N(Cc1ccccc1)C(=O)c1snc(C(N)=O)c1N (configuration not stated),inconclusive: 31.3%
17,Cc1ccnc(NC(=O)CNC(=O)c2ccccc2Br)c1,inactive: -0.479%
18,CC(C)(C)C(=O)N1CCN(C(c2ccccc2)c2ccccc2)CC1,inconclusive: 33.1%
19,CCCOc1ccc(C(C)=O)cc1CC(C(=O)OCC)C(=O)OCC,inconclusive: 39.2%
20,C=CCNC(=O)CCCOc1ccc(C)cc1,inconclusive: 55.7%
21,COCCn1c(=O)[nH]c2cc(C(=O)N3CCN(c4cc(C)ccc4C)CC3)ccc2c1=O,inactive: 1.27%
22,O=C(c1cc2ccccc2o1)N1CCN(S(=O)(=O)c2ccc(Cl)s2)CC1,inconclusive: 32.4%
23,Cn1cc(CNC(=O)c2cc(COc3ccc4c(c3)CCCC4)on2)cn1,inconclusive: 47.1%

row,SMILES,activation
1,Cc1ccc(SC[C@H](C)CN2CC[C@H](C)CCC2=O)cc1,inconclusive: 46%
2,CC(C)(C)NC(=O)CSc1nc2cccnc2n1C1CCCCC1,inconclusive: 43.6%
3,COc1ccccc1C(O)P(=O)(OC1CCCCC1)OC1CCCCC1 (configuration not stated),inconclusive: 43.9%
4,COc1ccc(N=C2SC(CC(=O)Nc3ccc(F)cc3)C(=O)N2Cc2ccco2)cc1 (configuration not stated),inconclusive: 55%
5,CC(NC(=O)/C=C/c1ccc(Br)cc1)c1ccccc1 (configuration not stated),inconclusive: 51.8%
6,CCOc1cccc(C2/C(=C(/O)c3ccc4c(c3)CC(C)O4)C(=O)C(=O)N2Cc2ccncc2)c1 (configuration not stated),inactive: -5.41%
7,CCc1nnc(NC(=O)CSc2nnc(-c3ccco3)n2C)s1,inactive: -0.835%
8,CCOc1cc(N2CCOCC2)c(OCC)cc1NC(C)C(=O)N1CCN(CC)CC1 (configuration not stated),inactive: 1.15%
9,O=C(CSc1nnc(-c2ccc(O)cc2)n1Cc1ccco1)c1ccccc1,inactive: -2.4%
10,O=C(CCl)N(c1ccc(Cl)cc1)c1c[nH]c2ccccc12,inactive: 4.1%
11,Cc1[nH]c(C)c(S(=O)(=O)NCc2ccc(Cl)cc2)c1C(=O)N1CCCC1,inactive: -1.31%
12,Cc1cccc(NC(=O)c2cc(S(=O)(=O)N3CCCC3)cn2C)c1,inactive: -1.95%
13,CN(CC(O)COC(c1ccccc1)c1ccccc1)C1CCCCC1 (configuration not stated),inactive: 3.66%
14,CCCNC(=O)c1cc(-c2ccccc2)c(N2CCCCC2)s1,inconclusive: 72.3%
15,Fc1ccc(CSc2nnc(-c3ccco3)o2)cc1,inconclusive: 30.5%
16,O=C(CSc1nc2ccccc2nc1N1CCOCC1)N1CCN(c2ccccc2)CC1,inconclusive: 46.5%
17,O=C(NNC1=NCCN1Cc1ccccc1)c1cccc(C(F)(F)F)c1,inactive: 1.22%
18,O=C(Nc1ccc(F)cc1)NC1CCCc2ccccc21 (configuration not stated),inconclusive: 61.7%
19,CC(C)(C)c1csc(NC(=O)Cc2cccs2)n1,inconclusive: 33.2%
20,CN1C(=O)c2ccccc2OC1(C)Cc1ccccc1 (configuration not stated),inconclusive: 33.8%
21,Cc1cc(=O)oc2c(CN3CCCCC3)c(O)c(Cl)cc12,inactive: -5.37%
22,COc1ccc(C(=O)c2sc(Nc3ccccc3)nc2C)cc1,inconclusive: 38%
23,O=C(COc1ccc(Cl)cc1)N1CCN(Cc2ccc3c(c2)OCO3)CC1,inconclusive: 54%

# Reprinted from above for reference:
row,SMILES,activation
4,COc1ccc(N=C2SC(CC(=O)Nc3ccc(F)cc3)C(=O)N2Cc2ccco2)cc1 (configuration not stated),inconclusive: 55%
5,CC(NC(=O)/C=C/c1ccc(Br)cc1)c1ccccc1 (configuration not stated),inconclusive: 51.8%
6,CCOc1cccc(C2/C(=C(/O)c3ccc4c(c3)CC(C)O4)C(=O)C(=O)N2Cc2ccncc2)c1 (configuration not stated),inactive: -5.41%
7,CCc1nnc(NC(=O)CSc2nnc(-c3ccco3)n2C)s1,inactive: -0.835%

# Next part.

row,SMILES,activation
1,Cc1cccc(C)c1OCc1cc(C(=O)NCc2ccc(Cl)s2)no1,inconclusive: 35.5%
2,Cc1ccc(NC(=O)CSc2nc3ccccc3nc2N2CCOCC2)c(C)c1,inconclusive: 35.9%
3,OC(COc1cccc2ccccc12)CN1CCCC1 (configuration not stated),inactive: 1.11%
4,O=C(Nc1cccc(C(F)(F)F)c1)C1CC(=O)N(CCc2ccccc2)C1 (configuration not stated),inconclusive: 31%
5,O=C(Nc1ccncc1)C1CCN(S(=O)(=O)c2ccc(Cl)cc2)CC1,inconclusive: 48.9%
6,CC(C)n1cc(C(=O)N2CCCC(Nc3ccc(F)c(F)c3)C2)cn1 (configuration not stated),inconclusive: 35.6%
7,CCc1ccc(C(=O)NC2CCCCC2)s1,inconclusive: 61.2%
8,Cc1cccc(N2CCN(C(=O)c3cccs3)CC2)c1C,inconclusive: 68.4%
9,Cn1nc(-c2ccccn2)nc2c(=O)n(C)c(=O)nc1-2,inactive: 0.679%
10,CCC(C)(C)NC(=O)CSc1nc(Cc2ccccc2)nc2ccccc12,inconclusive: 39.2%
11,CC(NC(=O)C1CCN(S(=O)(=O)c2ccccc2)CC1)c1ccccc1 (configuration not stated),inconclusive: 30.5%
12,CC(=O)Nc1ccc(NC(=O)Nc2cc(C)cc(C)c2)cc1,inconclusive: 43.4%
13,CCOc1ccc(-c2nc(C)c(C(C)=O)n2O)cc1,inactive: -1.82%
14,Cc1ccc(/C=C2\SC(N3CCCC3)=NC2=O)cc1,inconclusive: 35.7%
15,CCOC(=O)C1CCCN(C(=O)c2cc3cc(Br)ccc3oc2=O)C1 (configuration not stated),inactive: 10.1%
16,O=C(Nc1cccnc1Cl)c1cc2c(s1)-c1ccccc1OC2,inconclusive: 59.4%
17,CC(=O)NC(Cc1ccccc1)C(=O)N1CCN(C(=O)c2cccs2)CC1 (configuration not stated),inactive: 2.05%
18,CN(C)c1ncnc2sc(-c3ccccc3)cc12,inconclusive: 34.5%
19,Cc1ccc(-c2cc(N)n(-c3ccc(C)cc3)n2)cc1,inactive: -3.76%
20,S=c1nc(COc2ccccc2)[nH]c2ccccc12,inactive: 0.51%
21,CSCc1ccc(C(=O)NC(C)c2ccc(-n3ccnc3)cc2)cc1 (configuration not stated),inconclusive: 34.9%
22,O=C(c1cc2ccccc2o1)N1CCN(S(=O)(=O)c2ccccc2)CC1,inconclusive: 37.5%
23,Cc1c(C(=O)OCC(=O)N2CCC(C)CC2)oc2ccccc12,inconclusive: 41.4%

row,SMILES,activation
1,COc1ccc([C@H]2CC(=O)C=C(c3ccc(C)cc3)C2)cc1OC,inconclusive: 31.8%
2,COc1ccc(S(=O)(=O)Cc2ccc(C(=O)NCc3ccccc3)o2)cc1,inactive: 4.72%
3,Cc1ccc(OCc2cc(C(=O)N(C)CC3CCOCC3)no2)cc1C,inconclusive: 79.8%
4,CC1(C)Cc2c(sc3nc(=S)[nH]c(N)c23)CO1,inactive: -1.17%
5,FC(F)(F)c1cc(-c2cccs2)nc2nc(N3CCOCC3)sc12,inconclusive: 42.6%
6,Cc1ccc(C)c(Cc2c(C)nc3c(C(=O)N4CCOCC4)cnn3c2C)c1,inactive: -1.5%
7,Cc1ccc(C(C)NC(=S)NCc2ccc(F)cc2)cc1C (configuration not stated),active: 80.1%
8,O=C(NCCC1CCCCN1S(=O)(=O)c1ccccc1)C(=O)Nc1ccc(F)cc1F (configuration not stated),inconclusive: 32.8%
9,Cc1ccc(CCNC(=O)C2CCCN(S(=O)(=O)c3c(C)noc3/C=C/N(C)C)C2)cc1 (configuration not stated),inactive: 0.316%
10,Cc1ccc(S(=O)(=O)N2CCN(c3nc(C(C)C)c4c(c3C#N)CC(C)(C)OC4)CC2)cc1,inactive: 12.7%
11,CC(C)c1ccc(NC(=O)NC(C)c2ccc3c(c2)OCO3)cc1 (configuration not stated),inconclusive: 31.2%
12,NNC(=S)Nc1ccc(Cl)cc1,inactive: 2.35%
13,c1ccc2c(Nc3nnc(-c4ccncc4)s3)cccc2c1,inconclusive: 67.5%
14,CCN(c1cccc(C)c1)S(=O)(=O)c1ccc(-n2cccn2)cc1,inconclusive: 33.7%
15,COc1cccc2cc(C(C)N(CCCN3CCOCC3)C(=O)Nc3ccc(Cl)cc3)oc12 (configuration not stated),active: 85.6%
16,Cc1ccsc1/C=N/n1c(-c2ccccn2)n[nH]c1=S,inactive: -3.78%
17,O=C(CSc1nc(-c2ccccc2)c(-c2ccccc2)[nH]1)N1CCN(S(=O)(=O)c2ccccc2)CC1,inactive: -0.0786%
18,C/C(N)=C(/C#N)C(=O)COC(=O)c1cc2c(s1)CCC(C)C2 (configuration not stated),inconclusive: 55.8%
19,CCOC(=O)c1ccc(NC2c3ncccc3C(=O)N2Cc2ccc(F)cc2)cc1 (configuration not stated),inconclusive: 47.8%
20,COc1cc(/C=C2\OC(=O)c3c(OC)cccc32)ccc1O,inconclusive: 32.5%
21,O=C(Nc1ccccc1)Nc1cccc(Cl)c1,inconclusive: 71.9%
22,COC(=O)c1cn(NC(=O)c2ccc(F)cc2)c(=O)c2ccccc12,inconclusive: 49.5%
23,COc1cccc(C(=O)Nc2ccccc2C(=O)NCC2CCCO2)c1 (configuration not stated),inconclusive: 56.6%
